A negative result means that nothing was seen under these conditions. The exact form of at least one protein or probe is not confirmed.
The sequences below were run against Pfu FEN nuclease (Pyrococcus furiosus) (UniProt O93634) (assay: enzyme reaction in vitro). Settings: 2'-OMe at probe positions +2 to +16; purified recombinant protein; label: BHQ on +1, FAM on 3' end of probe; folded or branched DNA.

Sequences of proteins named here, by UniProt entry; tags and fusion partners are left off. A change or cut given only in a name is not applied to a line headed by its entry.
UniProt O93634: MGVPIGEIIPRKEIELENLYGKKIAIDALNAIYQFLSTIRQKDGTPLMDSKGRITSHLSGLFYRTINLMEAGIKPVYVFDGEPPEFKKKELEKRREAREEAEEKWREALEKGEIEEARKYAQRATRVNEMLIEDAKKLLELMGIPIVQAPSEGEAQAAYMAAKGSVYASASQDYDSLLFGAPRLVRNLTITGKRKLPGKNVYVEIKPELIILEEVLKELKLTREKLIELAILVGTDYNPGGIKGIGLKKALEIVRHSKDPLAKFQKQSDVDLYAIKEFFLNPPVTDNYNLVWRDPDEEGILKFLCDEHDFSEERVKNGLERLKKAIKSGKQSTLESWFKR

| Sequence | activity on this sequence |
| --- | --- |
| ACCGGTGACATTTACCTGCTCAACCTGGCC / TGCAGGGCCAGGTTGAGCAGGTAAATGTCAGGATACCACTTCAGCTTTTTGCAG / CTGCAAAAAGCTGAAGTGGTATCCTGAC [1Q3F 2'-OMe probe/target/F+4 upstream] | not active |
| ACCGGTGACATTTACCTGCTCAACCTGGCC / TGCAGGGCCAGGTTGAGCAGGTAAATGTCAGGATACCACTTCAGCTTTTTGCAG / CTGCAAAAAGCTGAAGTGGTATCCTG [1Q3F 2'-OMe probe/target/F+2 upstream] | not active |
| ACCGGTGACATTTACCTGCTCAACCTGGCC / TGCAGGGCCAGGTTGAGCAGGTAAATGTCAGGATACCACTTCAGCTTTTTGCAG / CTGCAAAAAGCTGAAGTGGTAT [1Q3F 2'-OMe probe/target/F-2 upstream] | not active |
| ACCGGTGACATTTACCTGCTCAACCTGGCC / TGCAGGGCCAGGTTGAGCAGGTAAATGTCAGGATACCACTTCAGCTTTTTGCAG / CTGCAAAAAGCTGAAGTGGTATCC [1Q3F 2'-OMe probe/target/FWD upstream] | not active |
| ACCGGTGACATTTACCTGCTCAACCTGGCC / TGCAGGGCCAGGTTGAGCAGGTAAATGTCAGGATACCACTTCAGCTTTTTGCAG / CTGCAAAAAGCTGAAGTGGTATC [1Q3F 2'-OMe probe/target/F-1 upstream] | not active |
| ACCGGTGACATTTACCTGCTCAACCTGGCC / TGCAGGGCCAGGTTGAGCAGGTAAATGTCAGGATACCACTTCAGCTTTTTGCAG / CTGCAAAAAGCTGAAGTGGTATCCT [1Q3F 2'-OMe probe/target/F+1 upstream] | not active |
| ACCGGTGACATTTACCTGCTCAACCTGGCC / TGCAGGGCCAGGTTGAGCAGGTAAATGTCAGGATACCACTTCAGCTTTTTGCAG / CTGCAAAAAGCTGAAGTGGTATCCTGA [1Q3F 2'-OMe probe/target/F+3 upstream] | not active |

Same assay, conditions: 2'-OMe at probe positions +2 to +16; purified recombinant protein; label: BHQ on +1, FAM on 5' end of probe; folded or branched DNA

| Sequence | activity on this sequence |
| --- | --- |
| ACCGGTGACATTTACCTGCTCAACCTGGCC / TGCAGGGCCAGGTTGAGCAGGTAAATGTCAGGATACCACTTCAGCTTTTTGCAG / CTGCAAAAAGCTGAAGTGGTATA [1Q5F 2'-OMe probe/target/F-1Amm upstream] | active |
